{"source": "patent US8188002B2", "about": "“3-amino-2-nitro-substituted benzoyl derivatives and use thereof as herbicides” (Bayer Cropscience AG, priority 2009, dated 2012)", "assay_type_in_all_cases": "in vivo", "key": {"Abuthilon theophrasti [1]": {"test_system": "Abuthilon theophrasti", "assay": "Post-emergence herbicidal action against harmful plants", "settings": "application rate 80 g/ha, visual rating after about 3 weeks vs untreated controls"}, "Abuthilon theophrasti [2]": {"test_system": "Abuthilon theophrasti", "assay": "Pre-emergence herbicidal action against harmful plants", "settings": "application rate 320 g/ha, visual assessment after 3 weeks vs untreated controls"}, "Echinocloa crus galli [3]": {"test_system": "Echinocloa crus galli", "assay": "Pre-emergence herbicidal action against harmful plants", "settings": "application rate 320 g/ha, visual assessment after 3 weeks vs untreated controls"}, "Echinocloa crus galli [4]": {"test_system": "Echinocloa crus galli", "assay": "Post-emergence herbicidal action against harmful plants", "settings": "application rate 80 g/ha, visual rating after about 3 weeks vs untreated controls"}}, "note": "Some results were stated once for a whole list of compounds, not compound by compound."}
{"smiles": "CCCNc1c(Cl)ccc(C(=O)C2C(=O)CCCC2=O)c1[N+](=O)[O-]", "note": "[1-5]", "values": [{"measurement": "herbicidal activity in percent", "setting": "Abuthilon theophrasti [1]", "value": "at least 80%"}, {"measurement": "herbicidal activity in percent", "setting": "Abuthilon theophrasti [2]", "value": "at least 90%"}, {"measurement": "herbicidal activity in percent", "setting": "Echinocloa crus galli [3]", "value": "at least 90%"}, {"measurement": "herbicidal activity in percent", "setting": "Echinocloa crus galli [4]", "value": "at least 80%"}]}
